## Library screening results

Chains of the proteins cited; added tags and fusions are not shown.
UniProt E9BF75, entry or part of it: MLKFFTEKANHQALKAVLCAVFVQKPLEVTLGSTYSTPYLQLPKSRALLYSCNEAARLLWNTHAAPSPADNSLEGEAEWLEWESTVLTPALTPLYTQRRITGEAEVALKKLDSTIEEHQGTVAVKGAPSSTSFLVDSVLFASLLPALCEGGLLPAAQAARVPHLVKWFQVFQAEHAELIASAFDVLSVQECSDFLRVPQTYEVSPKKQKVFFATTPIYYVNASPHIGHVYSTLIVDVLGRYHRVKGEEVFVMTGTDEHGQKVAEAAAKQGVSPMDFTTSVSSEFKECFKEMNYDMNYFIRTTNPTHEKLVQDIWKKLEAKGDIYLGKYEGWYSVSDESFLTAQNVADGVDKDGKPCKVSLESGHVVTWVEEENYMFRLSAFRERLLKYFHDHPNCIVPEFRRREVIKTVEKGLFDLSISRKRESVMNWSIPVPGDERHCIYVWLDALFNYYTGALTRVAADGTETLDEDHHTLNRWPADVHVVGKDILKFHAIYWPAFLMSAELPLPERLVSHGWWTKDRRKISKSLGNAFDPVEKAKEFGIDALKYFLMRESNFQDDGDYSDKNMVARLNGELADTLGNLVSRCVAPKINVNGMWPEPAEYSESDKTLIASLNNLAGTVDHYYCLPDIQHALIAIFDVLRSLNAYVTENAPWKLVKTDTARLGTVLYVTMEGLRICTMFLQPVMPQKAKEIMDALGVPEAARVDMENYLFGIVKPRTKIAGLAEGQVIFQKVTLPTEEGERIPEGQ

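Primary screen of methionyl-tRNA synthetase; the read-out is not stated. Target: Methionyl-tRNA synthetase (putative), Leishmania donovani (UniProt E9BF75). The test concentration is not given. The values are filed as inhibition. Size under these conditions: about 68,000 compounds, about 24 of them at 50% or above in at least one test.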

Results are percentages, as filed.
The controls that fix the scale are not given in the record; negative values are as filed.
Compounds were drawn at random from those tested, without regard to their results.

{"compound": "N#CC1(NC(=O)c2ccc(-c3nc(C4CC4)n[nH]3)cc2)CCSC1", "stereo": "stereo not drawn", "Inhibition": 11.55}
{"compound": "Cc1cnn(CC2CCCN2Cc2noc(C3CC3)n2)c1", "stereo": "stereo not drawn", "Inhibition": 15.76}
{"compound": "CC(C)N1C(=O)CN(CCCO)CC1(C)C", "Inhibition": 8.625}
{"compound": "O=C(NCc1cccnc1N1CCCCC1)c1ccc2[nH]nnc2c1", "Inhibition": 13}
{"compound": "CC(C)N1CCc2ncn(C)c2C1C(=O)NCCN1CCCC1", "stereo": "stereo not drawn", "Inhibition": 7.33}
{"compound": "O=C(CCc1cscn1)N1CCCC1c1noc(C2CC2)n1", "stereo": "stereo not drawn", "Inhibition": 9.804}
{"compound": "COCCc1noc(CN2CC(Cc3ccccc3)CC2=O)n1", "stereo": "stereo not drawn", "Inhibition": 16.27}
{"compound": "CC(C)NC(=O)CS(=O)(=O)c1cc2c(cc1Cl)OCCO2", "Inhibition": 6.425}
{"compound": "O=C(O)c1csc(S(=O)(=O)N2CCCc3ccc(F)cc32)c1", "Inhibition": 0}
{"compound": "O=C(C1CCOc2ccccc21)N1CCOc2cccc(F)c21", "stereo": "stereo not drawn", "Inhibition": 9.749}
{"compound": "Cn1ccc2ccc(C(=O)N3CC[C@@]4(O)CCCC[C@H]4C3)cc21", "Inhibition": 0.303}
{"compound": "O=C(O)c1ccc(CNC(=O)C2CCN(C(=O)C3CCC3)CC2)s1", "Inhibition": 12.3}
{"compound": "CNc1ncc(CN(C)c2nc(C)c3ccc(S(C)(=O)=O)cc3n2)cn1", "Inhibition": 10.92}
{"compound": "Cc1cccc(C2CCCN2C(=O)CCS(C)(=O)=O)c1C", "stereo": "stereo not drawn", "Inhibition": 10.07}
{"compound": "CN(C)S(=O)(=O)N1CCC(c2ccnc(Nc3ccccn3)n2)C1", "stereo": "stereo not drawn", "Inhibition": 20}
{"compound": "O=C1CC(NS(=O)(=O)N2CCOCC2)CN1CCc1ccccc1", "stereo": "stereo not drawn", "Inhibition": 4.359}
{"compound": "CCC(C(=O)NCc1ccncc1)N(c1cccc(C)c1)S(C)(=O)=O", "stereo": "stereo not drawn", "Inhibition": 14.63}
{"compound": "CC(C)c1nn(C)c(Cl)c1CNCc1ccc2c(c1)OCO2", "Inhibition": 18.29}
{"compound": "CCn1cc(C2CCN(Cc3ccnc(N(C)C)c3)CC2)cn1", "Inhibition": 12.1}
{"compound": "COc1ccc(CN2CCN(C(C)c3nc(C4CC4)no3)CC2)cc1", "stereo": "stereo not drawn", "Inhibition": 14.72}
{"compound": "CC(O)CN(CC(=O)NC(=O)NC1CC1)c1ccccc1", "stereo": "stereo not drawn", "Inhibition": 13.19}
{"compound": "COCC1c2c(cnn2CC2CC2)CCN1Cc1nccs1", "stereo": "stereo not drawn", "Inhibition": 17.15}
{"compound": "COc1ccccc1CC(=O)NC1CCCc2cn[nH]c21", "stereo": "stereo not drawn", "Inhibition": 16.91}
{"compound": "Cc1nn(C)c(C)c1NC(=O)CN1CCCC1c1c(C)nn(C)c1C", "stereo": "stereo not drawn", "Inhibition": 16.26}
{"compound": "CCCOC1CCCN(c2nc(CC)nc3c2cnn3C)C1", "stereo": "stereo not drawn", "Inhibition": 17.74}
{"compound": "COC(=O)C1CCN(c2cc(C)nc(-c3ccncc3)n2)CC1", "Inhibition": 30.05}
{"compound": "Cc1cc(C)c(OCC(=O)NS(=O)(=O)c2cccnc2)c(C)c1", "Inhibition": 10.2}
{"compound": "CS(=O)(=O)NCc1cc(=O)n2c(n1)CN(Cc1ccco1)CCC2", "Inhibition": -3.258}
{"compound": "CC1(C(=O)N2CCOCC2)CN(C2CCCCC2)CCO1", "stereo": "stereo not drawn", "Inhibition": 10.32}
{"compound": "COc1ccccc1C(=O)N(C)Cc1ncc(C)c(OC)c1C", "Inhibition": 13.19}
{"compound": "O=C(CCCOc1ccc(F)cc1F)N1CCCC(n2cccn2)C1", "stereo": "stereo not drawn", "Inhibition": 18.16}
{"compound": "Cc1nc(CN(C)C(=O)C2CCC(=O)N(CCN(C)C)C2)cs1", "stereo": "stereo not drawn", "Inhibition": 2.857}
{"compound": "Cc1nnc(CNC(=O)CC2CCc3ccccc32)o1", "stereo": "stereo not drawn", "Inhibition": 5.442}
{"compound": "CC(C)c1nnc(NC(=O)CSCc2cc(=O)n3ccccc3n2)s1", "Inhibition": 14.79}
{"compound": "Cc1nnc(NC(=O)NC(C)Cn2cccn2)s1", "stereo": "stereo not drawn", "Inhibition": 19.89}
{"compound": "C[C@H](O)CNc1cc(-c2cn[nH]c2)ncn1", "Inhibition": 1.699}
{"compound": "Cc1nc(CN2CCN(c3ccc(Cl)cn3)CC2)no1", "Inhibition": 22.74}
{"compound": "Cn1ccnc1CN1CC[C@@H](NS(C)(=O)=O)[C@@H]1Cc1ccccc1", "Inhibition": 12.38}
{"compound": "CC(C)CN(CC(O)c1ccc(F)cc1)C(=O)c1csnn1", "stereo": "stereo not drawn", "Inhibition": 6.162}
{"compound": "CC1COCCN1Cc1nc(-c2ccc(Br)s2)no1", "stereo": "stereo not drawn", "Inhibition": 8.889}
{"compound": "COCCSCC(=O)NC1(c2cccc(Br)c2)CC1", "Inhibition": 1.63}
{"compound": "O=S(=O)(N1CCCC1)N1CC(c2ccnc(Nc3ccccn3)n2)C1", "Inhibition": 3.492}
{"compound": "Cc1nn(C)c(Oc2ccccc2)c1CNC1CCOc2ccccc21", "stereo": "stereo not drawn", "Inhibition": 17.6}
{"compound": "O=C(CCC1CC1)N1C[C@@H](CN2CCCC2)[C@@H](CO)C1", "Inhibition": 12.6}

From ChEMBL document CHEMBL3988442, “University of Dundee, Small-Polar-MMV Screening Library” (2021).